# Results as given in PubChem BioAssay AID504444 (National Center for Advancing Translational Sciences (NCATS), 2011).
# In all, about 360,000 compounds went through this assay and about 7,500 (2.1%) were called active. This list was built around the results that the source calls inconclusive (neither active nor inactive); the mix of calls is not that of the screen. Calls follow the shape of the dose curve; as a rule, active = well fitted inhibition curve with a large enough effect; inconclusive = small, poorly fitted or top-dose-only effect, or effect the other way; inactive = flat fitted curve, though single readings scatter. Where the call is inconclusive, the potency comes from a doubtful curve fit.
# Experiment: Nrf2 qHTS screen for inhibitors; also: nearly all actives have a fitted effect of over 60% in size
# Details: A549 ARE-Fluc reporter, luciferase luminescence, 18-24 h; series mostly up to 46 µM
# Summary of the method: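 Cells were seeded and rested 2 h, then exposed to compounds for 18-24 h. CellTiter-Fluor was read first as a viability measure. BugLite was added 15 min before the final luminescent read of ARE-luciferase activity in A549 cells.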
# Potency is read from the fitted curve at half-maximal effect.
row,SMILES,Potency
1,CCN(CC)C(=O)C(=O)c1ccn(-c2c(C)csc2C(=O)OC)c1,inactive
2,Cc1ccc(S(=O)(=O)N2CCC(C(=O)Nc3ccc(S(=O)(=O)N4CCCC4)cc3)CC2)cc1,"inconclusive: 10.3 µM [falling, partial curve]"
3,Cc1occc1C(=O)Nc1ccc2c(c1)OCO2,"inconclusive: 4.61 µM [activator, single point]"
4,CCN(c1cccc(C)c1)S(=O)(=O)c1ccc(-n2cccn2)cc1,"inconclusive: 29.1 µM [falling, single point]"
5,Cc1ccc(Cc2nc(-c3ccccn3)no2)cc1,"inconclusive: 2.59 µM [activator, full curve]"
6,c1ccc(Cn2nnc3c(N4CCC5(CC4)OCCO5)ncnc32)cc1,"inconclusive: 6.51 µM [activator, partial curve, poor fit]"
7,CCc1ccc(NC(=O)CCS(=O)(=O)c2cc3c(cc2Cl)NC(=O)CO3)cc1,"inconclusive: 18.4 µM [falling, partial curve, poor fit]"
8,CC(C)C(=O)Nc1cccc(COc2cccc(CN(Cc3ccccc3)C(=O)OC(C)(C)C)c2)c1,"inconclusive: 18.4 µM [falling, single point]"
9,COC(=O)c1ccc(CSc2nc(C)nc3c2c(=O)n(C)c(=O)n3C)o1,"inconclusive: 6.51 µM [falling, single point]"
10,O=C(NCc1cccs1)c1nn(-c2ccccc2Cl)nc1CO,"inconclusive: 29.1 µM [falling, single point]"
11,CC1CCc2sc(NC(=S)NC(=O)c3ccccc3)c(C#N)c2C1 (configuration not stated),"inconclusive: 0.651 µM [activator, full curve]"
12,Cc1cccc(CN2C(=O)[C@@H]3Cc4c([nH]c5ccccc45)C(C)(C)N3C2=O)c1,"inconclusive: 29.1 µM [falling, single point]"
13,Cc1cccc(S(=O)(=O)Nc2ccc(-c3cn4ccccc4n3)cc2)c1,"inconclusive: 32.6 µM [falling, single point]"
14,Cc1cccc(NC2=Nc3ccccc3N3C2=Nc2c(c(C)nn2-c2ccccc2)C3c2ccc(O)c(O)c2)c1 (configuration not stated),"inconclusive: 25.9 µM [falling, partial curve, poor fit]"
15,O=C(CSc1nc(-c2ccccc2)c(-c2ccccc2)[nH]1)N1CCN(S(=O)(=O)c2ccccc2)CC1,active: 16.4 µM
16,CCOC(=O)C1=C(C)NC(SCC(=O)Nc2cc(C)on2)=C(C#N)C1c1cccs1 (configuration not stated),"inconclusive: 20.6 µM [falling, single point]"
17,CC(C)CC1NC(=O)N(CC(=O)Nc2ccccc2-c2ccccc2)C1=O (configuration not stated),inactive
18,COc1ccc(/C=N/NC(=O)CN2CCS(=O)(=O)CC2)cc1,"inconclusive: 18.4 µM [activator, partial curve]"
19,COc1ccccc1OCCCOc1ccc(/C=C2\SC(=O)NC2=O)cc1OC,"inconclusive: 32.6 µM [falling, partial curve, poor fit]"
20,C/C(CC(=O)Nc1ccc2c(c1)OCCO2)=N\NC(=O)COc1ccccc1C,"inconclusive: 20.6 µM [activator, single point]"
21,COCc1ccc(-c2c(-c3ccsc3)oc(=O)c3cc(OC)c(OC)cc23)cc1,"inconclusive: 29.1 µM [falling, single point]"

# A few values from the entries so far:
# Value for Cc1cccc(S(=O)(=O)Nc2ccc(-c3cn4ccccc4n3)cc2)c1 under Potency: inconclusive: 32.6 µM [falling, single point]
# Value for COc1ccc(/C=N/NC(=O)CN2CCS(=O)(=O)CC2)cc1 under Potency: inconclusive: 18.4 µM [activator, partial curve]
# Value for CCc1ccc(NC(=O)CCS(=O)(=O)c2cc3c(cc2Cl)NC(=O)CO3)cc1 under Potency: inconclusive: 18.4 µM [falling, partial curve, poor fit]
# Value for CC(C)CC1NC(=O)N(CC(=O)Nc2ccccc2-c2ccccc2)C1=O (configuration not stated) under Potency: inactive

# Later entries:

row,SMILES,Potency
1,COc1ccc(N=Cc2sc3ccccc3c2Cl)cc1,"inconclusive: 1.16 µM [activator, full curve]"
2,O=[N+]([O-])c1ccc(O)c(C=Nc2ccc3nc(-c4ccccc4)[nH]c3c2)c1,"inconclusive: 13 µM [activator, partial curve]"
3,Nn1c(SCC(=O)NCc2ccccc2)nnc1C1CC1,"inconclusive: 6.51 µM [falling, partial curve, poor fit]"
4,Cc1ccc(NC(=O)C2CCC(C(C)(C)C)CC2)cc1S(=O)(=O)N1CCOCC1 (configuration not stated),active: 20.6 µM
5,CN(NS(=O)(=O)c1ccc(Br)cc1)c1nc(C(F)(F)F)nc2ccccc12,active: 20.6 µM
6,CC1(C)Cc2c(C#N)c(N)n(-c3ccccc3)c(=O)c2CO1,inactive
7,COc1ccc(C2=NOC(CNC(=S)N3CCOCC3)C2)cc1 (configuration not stated),"inconclusive: 14.6 µM [activator, partial curve]"
8,O=C(N/N=C/c1ccsc1)c1cc(-c2ccncc2)nc2ccccc12,inactive
9,Cc1ccc(C)c(C(=O)CSc2n[nH]c(-c3ccncc3)n2)c1,"inconclusive: 20.6 µM [falling, partial curve, poor fit]"
10,COc1ccc(-c2nc(C#N)c(N3CCCCC3)o2)cc1,inactive
11,CC(=O)N1CCc2cc(S(=O)(=O)Nc3cccc(C(F)(F)F)c3)ccc21,active: 9.2 µM
12,O=C(C1CCN(S(=O)(=O)c2ccc3c(c2)OCCO3)CC1)N1CCc2ccccc21,active: 14.6 µM
13,CCn1cc(C(=O)O)c(=O)c2cnc(N3CCN(C(=S)Nc4ccccc4C(F)(F)F)CC3)nc21,inactive
14,CCOC(=O)c1sc(NC(=O)C2CC(=O)N(c3ccc4c(c3)OCCO4)C2)nc1C (configuration not stated),"inconclusive: 7.31 µM [falling, partial curve]"
15,N#Cc1c(-c2cccs2)cc(-c2cccnc2)nc1N,inactive
16,CCOc1ccc(-c2nc(C)c(C(C)=O)n2O)cc1,"inconclusive: 0.82 µM [activator, full curve, poor fit]"
17,CCOc1ccc(CCNC(=O)c2ccc(C)c(S(=O)(=O)N3CCOCC3)c2)cc1OCC,"inconclusive: 18.4 µM [falling, single point]"
18,CCOC(=O)C1CCCN(C(=O)c2cc3cc(Br)ccc3oc2=O)C1 (configuration not stated),"inconclusive: 0.92 µM [falling, partial curve, poor fit]"
19,Cc1ccc2nc(-c3cccc(SC4CCCCC4)c3)c(NCc3ccccc3)n2c1,"inconclusive: 29.1 µM [falling, single point]"
20,COc1ccccc1CNC(=O)C(C)n1ccc2cc(S(=O)(=O)N3CCCC3)ccc21 (configuration not stated),"inconclusive: 29.1 µM [falling, single point]"
21,Cc1ccc(NCc2nc3ccccc3n2C)c(C)c1,"inconclusive: 0.92 µM [activator, full curve]"
